# Reference: PubChem BioAssay AID1259415 (National Center for Advancing Translational Sciences (NCATS), 2018)
# Hit rate of the full screen: of about 410,000 compounds, about 18,000 (4.4%) were called active. The inconclusive results got no clear call from the source; some entries with a clear call stand among them for comparison. No stated cut-off is given here; in the data, active means activity change below about -60%; inconclusive means no clear call, values can overlap the other calls; inactive means above about -39%. A structure can be active in one record and inactive in another.
# Assay: qHTS Assay for inhibitors of the human cytomegalovirus (HCMV)
# Details: HFF cells, HCMV-luciferase reporter, 72 h; at 57.5 µM; hits give low values
# Excerpt: NCGC Assay Overview: Infection with human cytomegalovirus (HCMV) continues to pose significant threats for pregnant women and immunocompromised hosts. HCMV causes serious morbidity and mortality in transplant recipients, and congenital HCMV is the leading infectious cause of mental retardation and deafness in children. In the 1990s, the annual costs associated with the disease burden of congenital CMV were estimated at around $2 billion. A HCMV vaccine is not available yet and HCMV therapies result in intolerable side effects and emergence of drug resistant viruses. […] Towards this goal we have developed and characterized a luciferase HCMV reporter that was initially used in 96 well plates and then optimized to 1536-well plates for utilization in screening of the MLSMR collection, the NGCG diversity collection and the NCGC Pharmaceutical Collection of approved and investigational drugs.
# NCGC Assay Protocol Summary:
# This is a cell-based assay for HCMV inhibition in HFFs cells. The screening used 2 compound doses and the HCMV-luciferase at MOI of 1 PFU/cell. Cells were treated and infected with HCMV. At 72 h post infection cell lysates were collected and luciferase activity was determined using the Glomax-Multi + Detection System (Promega, Madison, WI). Data were normalized to the controls for basal activity (buffer only) and known HCMV inhibitors Salinmoycin.
# 1536-well assay protocol for the assay:
# (1) Add 3 ul CMV/HFF cell culture. 1000 cells/well in DMEM nirmal media.
# (2) Incubate 16 hr at 37C.
# (3) Add 23 nl control compound, 10uM of Salinomycin.
# (4) Add 23 nl compounds in DMSO solution.
# (5) Add 3 ul CMV suspension. Final 1 puf/ul, Virus stock 2000pfu/ul
# (6) Incubate 72 hrs at 37C.
# (7) Add 4 ul OneGlo Luc Reagent.
# (8) Incubate 5 min at room temperature.
# On the % scale 0 is the no-effect control and ±100 the full control effect.
row,SMILES,"activity change, negative = inhibition"
1,CCOC(=O)Cn1ccc(NC(=O)COc2ccc(F)cc2F)n1,inconclusive: -45.6%
2,COc1ccc(C(=O)NCc2ccc3c(c2)CCN3C(=O)c2ccc(Cl)cc2)c(OC)c1,inactive: 31%
3,CC(C)c1ccc(C(=O)N2CCCC(c3cc(C(=O)Nc4ccccc4Cl)no3)C2)cc1 (stereo not drawn),inconclusive: -47.4%
4,CN1C(=O)c2ccccc2Sc2ccc(NC(=O)N3CCN(c4cccc(Cl)c4)CC3)cc21,inconclusive: -50.4%
5,Cc1ccc(-c2nc(CN3C(=O)CN=C(c4ccccc4Cl)c4cc(Cl)ccc43)c(C)o2)cc1,inconclusive: -58.1%
6,Clc1ccc(CNc2ncnc3onc(-c4ccc(Cl)cc4)c23)cc1,inconclusive: -53.1%
7,CC1Cc2ccccc2N1CC(=O)NC(c1ccccc1)c1ccccc1 (stereo not drawn),inconclusive: -51.3%
8,O=C(NCCSc1ccc(Cl)cc1)c1ccco1,inconclusive: -46%
9,Cc1cc2cc3c(cc2nc1SCc1ccccn1)OCCO3,inactive: -26.2%
10,CC1CCCCC1NC(=O)COC(=O)COc1ccc(Cl)cc1 (stereo not drawn),inconclusive: -44.7%
11,CCOC(=O)c1cc2c(=O)n3ccccc3nc2n(C(C)C)c1=NC(=O)c1c(-c2c(F)cccc2Cl)noc1C,active: -90.3%
12,O=C(c1ccccc1-c1nc(-c2ccc(Cl)cc2)no1)N1CCCC1,inactive: 12.7%
13,COc1ccc(C(=O)C2CCCN(Cc3cc(Cl)ccc3O)C2)c(OC)c1 (stereo not drawn),inactive: -26.1%
14,Cc1ccc(NC(=O)c2cn(CCC#N)nc2-c2cccs2)c([N+](=O)[O-])c1,inconclusive: -45.9%
15,CCCOc1ccc(C(=O)C(CCC(CNCC)C(=O)c2ccc(OCCC)cc2)CNCC)cc1 (stereo not drawn),active: -96.5%
16,Cc1cc(=O)n(Cc2ccc(Br)cc2F)c2c1c(C)nn2-c1ccccc1,inactive: 0.488%
17,CCN(CC(=O)Nc1ccc(OC)cc1)CC(=O)Nc1sc2c(c1C(=O)OC)CCCC2,inconclusive: -53.3%
18,O=C(NC12CC3CC(CC(C3)C1)C2)OCCNC1CCCCC1,inconclusive: -43.4%
19,Cc1ccc(OCc2cc(C(=O)NCCc3cccnc3)no2)cc1C,inactive: 60.9%
20,COc1ccc(N/N=C(C)/C(=N/O)C(=O)Nc2ccccc2)cc1,inconclusive: -53.9%
21,O=C1COc2ccc(C(=O)CSc3nc4ccccc4c(=O)n3-c3ccc(Cl)c(Cl)c3)cc2N1,active: -80.8%
22,CN(Cc1ccco1)C(=O)Cn1nc(-c2ccc(Cl)cc2)ccc1=O,inconclusive: -49.8%

row,SMILES,"activity change, negative = inhibition"
1,COc1ccccc1C(=O)Nc1ccccc1C(=O)N1C(C)CCCC1C (stereo not drawn),inconclusive: -42.1%
2,O=C(O)c1ccc(/C=C2\SC(=Nc3ccccc3)N(c3ccccc3)C2=O)cc1,inconclusive: -50.2%
3,O=[N+]([O-])c1ccc(Sc2cc[n+]([O-])c3ccccc23)c([N+](=O)[O-])c1,inconclusive: -51.5%
4,Cc1c(C(C)C)c(=O)n(-c2ccc(S(=O)(=O)NC3CCCCC3)cc2)n1C,active: -89.3%
5,CS(=O)(=O)N1Cc2ccccc2CC1C(=O)Nc1ccccc1C(N)=O (stereo not drawn),inactive: -3.08%
6,O=C1CC(CC(=O)N/N=C/c2ccccc2[N+](=O)[O-])=NN1,inconclusive: -48.3%
7,S=c1nc(-c2cc(Cl)cc(Cl)c2)[nH][nH]1,inconclusive: -59.6%
8,O=C(c1ccc(Cl)cc1)C1CCCN(Cc2cccn2-c2cccnc2)C1 (stereo not drawn),inconclusive: -50.8%
9,CC1CCC(C(C)C)C(OCC(O)CN2CCN(Cc3ccccc3)CC2)C1 (stereo not drawn),inconclusive: -43.2%
10,Cc1ccc(NC(=O)CSc2nccn2-c2ccccc2)cc1,inactive: 0%
11,CN1C(=O)/C(=C/c2ccccc2F)Sc2ccc(C(=O)NCC3CCCO3)cc21 (stereo not drawn),inactive: -5.25%
12,COc1ccc(NC(=O)C(NCC(C)C)c2ccccc2)cc1Cl (stereo not drawn),inconclusive: -54.9%
13,C[C@]12CCCCCC3=CC(=O)C=C[C@@]31OC(=O)CC2,inactive: 6.01%
14,CCCOc1ccc(S(=O)(=O)Nc2ccccn2)c2ccccc12,inactive: 11.9%
15,COc1ccc(Cl)cc1NC(=O)NC(C)C(C)(C)C (stereo not drawn),inconclusive: -57.8%
16,COc1ccc(CCNC(=O)c2ccc3c(c2)CCN3S(=O)(=O)c2ccc(C)cc2)cc1OC,inconclusive: -51.8%
17,Cc1ccc(/C=N/NC(=S)Nc2cccc(S(=O)(=O)N(C)C)c2)o1,inconclusive: -48.7%
18,Cc1nc2ccccc2n1CC(O)COc1ccccc1Cl (stereo not drawn),active: -74.1%
19,CCOc1ccc(NC(=O)N2CCN(C(=O)c3nsc4ccccc34)CC2)cc1,inconclusive: 0%
20,Cc1cccc(NC(=O)c2ccc(Cn3nc(N4CCN(c5ccccc5)CC4)ccc3=O)o2)c1C,active: -71.6%
21,Cc1ccc(-c2nn(-c3ccccc3)cc2C(=O)Nc2cccc(S(=O)(=O)N3CCOCC3)c2)cc1,inconclusive: -55.9%

# Individual results from the list.
# For activity change, negative = inhibition, `COc1ccccc1C(=O)Nc1ccccc1C(=O)N1C(C)CCCC1C` (stereo not drawn) is entered as inconclusive: -42.1%
# For activity change, negative = inhibition, `CCCOc1ccc(S(=O)(=O)Nc2ccccn2)c2ccccc12` is entered as inactive: 11.9%
